Results from article PMC3840065, “Structural Insights into the Mechanism for Recognizing Substrate of the Cytochrome P450 Enzyme TxtE” (PLoS ONE, 2013).
Results are given in words; binding and its absence hold for the method and conditions named. Where a sequence is shown, tags or fusion partners need not be part of it.

Molecular target: TxtE, cytochrome P450 enzyme from Streptomyces scabies 87.22 (wild type) (Streptomyces scabies 87.22) (UniProt C9ZDC6)
Test: SEC; gel filtration; conditions not told for this result (the purification used Superdex 75 16/60 in 25 mM Tris-HCl pH 8.0, 150 mM NaCl, 5% glycerol); both purified

B1: TxtE, cytochrome P450 enzyme from Streptomyces scabies 87.22 (wild type) (enzyme, UniProt C9ZDC6 1-406)
chain: MTVPSPLADPSIVPDPYPVYADLAQRRPVHWVERLNAWAVLTYADCAAGLKDPRLTADRGTEVLAAKFPGQPLPPDNIFHRWTKNVVMYTDPPLHDALRRSVRAGFTRAAHQHYDQVLQKVAHDLVASIPAGATEIDAVPALAAELPVRSAVHAFGVPEEDLGFLIPRVNTIMTYHSGPKDQPVTQEIILEKLTDLHTYASELLQGMRGKVLPDTVIARLAAAQDGLTETTPEQTVHQLALVFIALFAPTTPGSLSSGTLAFARNPRQVERFLADQACVDNTANEVLRYNASNQFTWRVAAKDVEMGGVRIEAGQTLALFLGSANRDANMFERPNDFDLDRPNSARHLSFGQGVHACLAAQLISLQLKWFYVALLNRFPGIRTAGEPIWNENLEFRSLRSLPLSLR
In the case of B1, the binding is reported as “no binding”.
